The subject of this experiment is BDF1 mice, P388 leukemia ip, median survival T/C. The experiment can be described thus: NCI In Vivo Anticancer Drug Screen. Data for tumor model P388 Leukemia (intraperitoneal) in B6D2F1 (BDF1) mice. The following applies: T/C endpoint: median survival time, higher T/C = longer survival. A digest of the protocol: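 Reported as T/C, where T is the survival measurement in dosed animals and C the same measurement in vehicle controls.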

The mark [1] stands for this setting: dose: 50.0 mg/kg/injection, schedule: Q01DX009 (ip), vehicle: saline with Tween-80.
[2] abbreviates: dose: 40.0 mg/kg/injection, schedule: Q01DX009 (ip), vehicle: saline.
[3] abbreviates: dose: 100.0 mg/kg/injection, schedule: Q01DX009 (ip), vehicle: saline with Tween-80.

The list shows only some results of the screen, not a fair sample: it gathers tests that were run many times, whatever their T/C, doses with no T/C, and many T/C values between a quarter and a half above the control. Other doses and runs of a compound stand elsewhere. T/C is the treated group as % of the vehicle group. Some doses have a count of surviving animals in place of a T/C: the source holds a T/C of zero for them, seemingly a mark for toxic or unscored doses. Some doses without a T/C left all or most animals alive at the check, yet need not have been tolerated: the source hardly ever lists a survival T/C far under the control, and the zero likely stands for such cases as well. Counts of survivors are from the toxicity check (mostly the fifth day) where no day follows; animals may have died later. Schedule codes are those of the source, read here as Q, the interval in days (D) or hours (H), X, the number of doses. Some entries hold several experiments; the values are given in rising order. For survival time, the PubChem record calls one and a half times the control and up active, and a quarter to a half above the control has no call in these data; cut-offs in other NCI protocols can differ. Signs of the kind (2×) stand for listed records that agree. Some T/C values are followed by the survivors on the day toxicity was checked, most often the fifth; where none is given, no animal had died by that day.

Regarding `CC1=NNC(=O)/C1=C\c1ccc(N(C)C)cc1`, the survivor count under setting [1] was 7 of 7.

As for `O=C1CC(c2ccc(O)cc2)CC(=O)C1C(C1CC=CCC1)N(CCCl)CCCl` (centres undefined), the T/C was 127 % of control (dose: 75.0 mg/kg/injection, schedule: Q04DX003 (ip), vehicle: Klucel (hydroxypropylcellulose) (HPC)); 131 % of control (dose: 115.0 mg/kg/injection, schedule: Q04DX003 (ip), vehicle: Klucel (hydroxypropylcellulose) (HPC)); 125 % of control (2×) (dose: 177.0 mg/kg/injection, schedule: Q04DX003 (ip), vehicle: Klucel (hydroxypropylcellulose) (HPC)); 127 % of control (dose: 200.0 mg/kg/injection, schedule: Q04DX003 (ip), vehicle: Klucel (hydroxypropylcellulose) (HPC)); 133 and 140 % of control (dose: 266.0 mg/kg/injection, schedule: Q04DX003 (ip), vehicle: Klucel (hydroxypropylcellulose) (HPC)).

Consider `Cc1ccccc1N1C(=O)CSC1=S`, for which the T/C (dose: 200.0 mg/kg/injection, schedule: Q04DX003 (ip), vehicle: saline with Tween-80) was 127 % of control.

`Nc1ccc2nc3ccc(N)cc3[n+](-c3ccccc3)c2c1`: the T/C runs as follows: (dose: 0.5 mg/kg/injection, schedule: Q03HX024 (ip), vehicle: saline) 130 % of control; (dose: 1.0 mg/kg/injection, schedule: Q01DX009 (ip), vehicle: saline) 138 % of control; (dose: 1.0 mg/kg/injection, schedule: Q03HX016 (ip), vehicle: saline) 130 % of control; (dose: 2.0 mg/kg/injection, schedule: Q01DX009 (ip), vehicle: saline, evaluated on day 30) 144 % of control; (dose: 2.0 mg/kg/injection, schedule: Q01DX009 (ip), vehicle: saline, evaluated on day 60) 148 % of control; (dose: 2.0 mg/kg/injection, schedule: Q03HX008 (ip), vehicle: saline) 131 % of control [7 of 10 alive]. Further, the T/C is, setting by setting: (dose: 2.0 mg/kg/injection, schedule: Q03HX016 (ip), vehicle: saline) 133 % of control [9 of 10 alive]; (dose: 2.25 mg/kg/injection, schedule: Q01DX009 (ip), vehicle: saline) 137 % of control; (dose: 3.12 mg/kg/injection, schedule: Q01DX009 (ip), vehicle: saline) 130 % of control; (dose: 4.0 mg/kg/injection, schedule: Q01DX009 (ip), vehicle: saline) 138 % of control [5 of 6 alive]; (dose: 4.0 mg/kg/injection, schedule: Q04DX003 (ip), vehicle: saline) 125 % of control; (dose: 4.1 mg/kg/injection, schedule: Q01DX009 (ip), vehicle: saline) 137 and 145 % of control. Also, the T/C reads like this: (dose: 4.5 mg/kg/injection, schedule: Q01DX009 (ip), vehicle: saline) 133 and 141 % of control; (dose: 6.0 mg/kg/injection, schedule: Q01DX009 (ip), vehicle: saline) 127 % of control; (dose: 6.25 mg/kg/injection, schedule: Q01DX009 (ip), vehicle: saline) 133 [4 of 6 alive] and 147 % of control; (dose: 8.0 mg/kg/injection, schedule: Q01DX009 (ip), vehicle: saline) 136 % of control; (dose: 8.0 mg/kg/injection, schedule: Q04DX003 (ip), vehicle: saline) 132 % of control [9 of 10 alive]; (dose: 9.3 mg/kg/injection, schedule: Q01DX009 (ip), vehicle: saline) 141 % of control. Further, the T/C is 145 % of control (dose: 12.5 mg/kg/injection, schedule: Q04DX003 (ip), vehicle: saline); 127 % of control (dose: 16.0 mg/kg/injection, schedule: Q01DX001 (ip), vehicle: saline); 138 % of control [9 of 10 alive] (dose: 16.0 mg/kg/injection, schedule: Q04DX003 (ip), vehicle: saline); 134 % of control [8 of 10 alive] (dose: 32.0 mg/kg/injection, schedule: Q08DX002 (ip), vehicle: saline). The survivor count was 6 of 10 (dose: 4.0 mg/kg/injection, schedule: Q03HX008 (ip), vehicle: saline); 3 of 10 (dose: 8.0 mg/kg/injection, schedule: Q03HX008 (ip), vehicle: saline); 4 of 10 (dose: 8.0 mg/kg/injection, schedule: Q03HX016 (ip), vehicle: saline); 7 of 10 (dose: 8.0 mg/kg/injection, schedule: Q03HX024 (ip), vehicle: saline); 3 of 6 (dose: 12.5 mg/kg/injection, schedule: Q01DX009 (ip), vehicle: saline); 0 of 10 (dose: 16.0 mg/kg/injection, schedule: Q03HX008 (ip), vehicle: saline). In addition, the survivor count reads like this: (dose: 16.0 mg/kg/injection, schedule: Q03HX016 (ip), vehicle: saline) 0 of 10; (dose: 25.0 mg/kg/injection, schedule: Q01DX009 (ip), vehicle: saline) 3 of 6; (dose: 27.0 mg/kg/injection, schedule: Q01DX009 (ip), vehicle: saline) 0 of 6 and 3 of 6; (dose: 32.0 mg/kg/injection, schedule: Q01DX001 (ip), vehicle: saline) 5 of 10; (dose: 32.0 mg/kg/injection, schedule: Q01DX009 (ip), vehicle: saline) 2 of 10; (dose: 32.0 mg/kg/injection, schedule: Q03HX008 (ip), vehicle: saline) 0 of 10. Also, the survivor count was 0 of 6 and 6 of 6 under setting [2]; 1 of 6 (dose: 50.0 mg/kg/injection, schedule: Q01DX009 (ip), vehicle: saline); 5 of 6 (dose: 50.0 mg/kg/injection, schedule: Q04DX003 (ip), vehicle: saline); 4 of 6 (dose: 60.0 mg/kg/injection, schedule: Q01DX009 (ip), vehicle: saline); 3 of 10 (dose: 64.0 mg/kg/injection, schedule: Q01DX001 (ip), vehicle: saline); 4 of 10 (dose: 64.0 mg/kg/injection, schedule: Q04DX003 (ip), vehicle: saline). In addition, the survivor count by setting is: (dose: 64.0 mg/kg/injection, schedule: Q08DX002 (ip), vehicle: saline) 0 of 10; (dose: 75.0 mg/kg/injection, schedule: Q04DX003 (ip), vehicle: saline) 0 of 6; (dose: 128.0 mg/kg/injection, schedule: Q01DX001 (ip), vehicle: saline) 0 of 10; (dose: 128.0 mg/kg/injection, schedule: Q08DX002 (ip), vehicle: saline) 0 of 10; (dose: 256.0 mg/kg/injection, schedule: Q01DX001 (ip), vehicle: saline) 0 of 10.

With `OCC1OC(n2cnc3cc(Cl)c(Cl)cc32)C(O)C1O` (centres undefined), the T/C is, setting by setting: under setting [1], 130 % of control; under setting [3], 140 % of control [5 of 6 alive]. The survivor count by setting is: (dose: 200.0 mg/kg/injection, schedule: Q01DX009 (ip), vehicle: saline with Tween-80) 5 of 6; (dose: 400.0 mg/kg/injection, schedule: Q01DX009 (ip), vehicle: saline with Tween-80) 0 of 6.

Turning to `CC(C#N)N(C)C` (centres undefined), the survivor count (dose: 20.0 mg/kg/injection, schedule: Q01DX009 (ip), vehicle: saline) is 2 of 6 and the survivor count under setting [2] is recorded as 0 of 6.

For `C1=CC23C4CCC2C2C4C4C(=C1)C3C2N1CCCCC41` (centres undefined), the survivor count is, setting by setting: (dose: 75.0 mg/kg/injection, schedule: Q01DX009 (ip), vehicle: Klucel (hydroxypropylcellulose) (HPC)) 4 of 6; (dose: 115.0 mg/kg/injection, schedule: Q01DX009 (ip), vehicle: Klucel (hydroxypropylcellulose) (HPC)) 1 of 6; (dose: 150.0 mg/kg/injection, schedule: Q04DX003 (ip), vehicle: Klucel (hydroxypropylcellulose) (HPC)) 0 of 6; (dose: 170.0 mg/kg/injection, schedule: Q01DX009 (ip), vehicle: Klucel (hydroxypropylcellulose) (HPC)) 0 of 6.

With `COC(=O)CCC(=O)CCC(C)C`, the survivor count under setting [3] is given as 6 of 6.

Turning to `CCCCCCC1CCC(N)CC1` (centres undefined), the survivor count (dose: 50.0 mg/kg/injection, schedule: Q01DX009 (ip), vehicle: Klucel (hydroxypropylcellulose) (HPC)) is recorded as 6 of 6.
